According to patent publication US20180072803A1:
Results are given in words; binding and its absence hold for the method and conditions named. Some binding calls cover weakened binding; strength is not graded here. Each block holds one binder with its values, some of them ahead of it.

By UniProt entry, the sequences of proteins in these tests, tags left out. Residues count along the entry.
UniProt P35052, residues 24-530: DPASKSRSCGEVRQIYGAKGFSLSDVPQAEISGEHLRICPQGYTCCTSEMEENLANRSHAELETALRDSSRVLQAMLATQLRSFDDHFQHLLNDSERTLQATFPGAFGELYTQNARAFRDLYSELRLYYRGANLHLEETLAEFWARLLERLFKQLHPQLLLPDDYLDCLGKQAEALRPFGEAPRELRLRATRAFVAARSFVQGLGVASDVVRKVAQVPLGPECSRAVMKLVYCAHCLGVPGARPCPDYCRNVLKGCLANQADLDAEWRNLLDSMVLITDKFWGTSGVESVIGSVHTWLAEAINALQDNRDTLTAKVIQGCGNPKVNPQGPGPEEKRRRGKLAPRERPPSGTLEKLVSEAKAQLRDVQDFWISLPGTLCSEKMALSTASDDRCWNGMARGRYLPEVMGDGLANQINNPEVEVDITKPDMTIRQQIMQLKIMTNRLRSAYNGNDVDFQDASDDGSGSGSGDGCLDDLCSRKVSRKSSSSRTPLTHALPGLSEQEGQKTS

Columns and labels:
[1] = target: MIL-38 antigen (GPC-1) as present in DU-145 and other cell lines (UniProt P35052); experiment: immunofluorescence assay on T24 cells
[2] = target: MIL-38 antigen (GPC-1) as present in DU-145 and other cell lines (UniProt P35052); experiment: immunofluorescence assay on cell lines
[3] = target: MIL-38 antigen (GPC-1) as present in DU-145 and other cell lines (UniProt P35052); experiment: immunofluorescence assay on DU145 cells
[4] = target: MIL-38 antigen (GPC-1) as present in DU-145 and other cell lines (UniProt P35052); experiment: immunofluorescence assay on PZHPV7 cells
[5] = target: MIL-38 antigen (GPC-1) as present in DU-145 and other cell lines (UniProt P35052); experiment: Western blot on MPEK extracts of cell lines (FIG. 1)
[6] = target: MIL-38 antigen (GPC-1) as present in DU-145 and other cell lines (UniProt P35052); experiment: immunofluorescence assay on RWPE1 cells
[7] = target: recombinant human GPC-1 produced from NS0 cells (human) (UniProt P35052); experiment: sandwich ELISA, antibody coated as capture, biotinylated AM-4 clone IF5 as detection (FIG. 6B)
[8] = target: MIL-38 antigen (GPC-1) as present in DU-145 and other cell lines (UniProt P35052); experiment: immunofluorescence assay on DU-145 cells (FIG. 5A)

binding [1]: binds
binding [2]: binds
binding [3]: binds
binding [4]: binds
binding [5]: binds
binding [6]: binds
B1: MIL-38 antibody preparation “Original” (1-O) from ATCC HB11785 hybridoma cells (antibody, mouse IgG1, kappa, V domains shown)
VH: QIQLVQSGPELKKPGETVKISCKASGYAFTDYSMNWVKQAPGKGLRWMGWINTETGEPTYTDDFKGRFAFSLETSASTAFLQINNLRNEDTATYFCARHYDYGGFPYWGQGTLVTVSA
VL: DIQMTQSPASLSASVGETVTITCRASGNVHNYLAWYQQKQGKSPQLLVYTAKTLADGVPSRFSGSGSGTQYSLKINSLQPEDFGTYYCQHFWSNPWTFGGGTKLEIKR

binding [7]: binds
B2: MIL-38 AM-4 clone IF5 (antibody, mouse IgG1, kappa, V domains shown)
VH: QIQLVQSGPELKKPGETVKISCKASGYAFTDYSMNWVKQAPGKGLRWMGWINTETGEPTYTDDFKGRFAFSLETSASTAFLQINNLRNEDTATYFCARHYDYGGFPYWGQGTLVTVSA
VL: DIQMTQSPASLSASVGETVTITCRASGNVHNYLAWYQQKQGKSPQLLVYTAKTLADGVPSRFSGSGSGTQYSLKINSLQPEDFGTYYCQHFWSNPWTFGGGTKLEIKR

binding [8]: binds
B3: MIL-38 antibody preparation Alfio I (antibody, mouse IgG1, kappa, V domains shown)
VH: QIQLVQSGPELKKPGETVKISCKASGYAFTDYSMNWVKQAPGKGLRWMGWINTETGEPTYTDDFKGRFAFSLETSASTAFLQINNLRNEDTATYFCARHYDYGGFPYWGQGTLVTVSA
VL: DIQMTQSPASLSASVGETVTITCRASGNVHNYLAWYQQKQGKSPQLLVYTAKTLADGVPSRFSGSGSGTQYSLKINSLQPEDFGTYYCQHFWSNPWTFGGGTKLEIKR
